Laboratory results published in the supplement of paper PMC4683952.
Structures can show the parent of a compound that is named as a salt. The whole screen tested about 1,200 compounds, of which about 50 (4%) showed activity. Rule as the data show it: all actives reach 1.3 or more but so do some inactives. The list shows a part of the results.

Test system: Lgr5 (MarsCy1-Lgr5-EGFP, U2OS)
Assay: cell-surface Lgr5 expression (SCi1 fluorescence, background-subtracted) relative to WT DMSO (fold of DMSO control); higher = more Lgr5 at the plasma membrane, active = hit call of the paper
Details: U2OS MarsCy1-Lgr5-EGFP stable; treatment time: overnight; 16 µM; library: Johns Hopkins Clinical Compound Library

Compound | cell-surface Lgr5 expression
C[C@H](CCC(=O)O)[C@H]1CC[C@H]2[C@@H]3C(=O)C[C@@H]4CC(=O)CC[C@]4(C)[C@H]3CC(=O)[C@]12C [Dehydrocholic acid] | inactive: 1.04
CCN(CC)CCNC(=O)c1cc(Br)c(N)cc1OC [Bromopride] | inactive: 1.21
Cc1cc2nc3c(=O)[nH]c(=O)nc-3n(C[C@H](O)[C@H](O)[C@H](O)COP(=O)(O)O)c2cc1C [Riboflavin phosphate sodium (Flavin monomucleotide)] | inactive: 0.932
CSCC[C@H](NC(=O)[C@H](Cc1c[nH]c2ccccc12)NC(=O)CCNC(=O)OC(C)(C)C)C(=O)N[C@@H](CC(=O)O)C(=O)N[C@@H](Cc1ccccc1)C(N)=O [Pentagastrin (N-t-Boc-β-Ala-Trp-Met-Asp-Phe)] | inactive: 0.827
CC(C)NNC(=O)c1ccncc1 [Iproniazid phosphate salt] | inactive: 0.865
CC(C)NNC(=O)c1ccncc1 [Iproniazid (Isonicotinic acid hydrazide)] | inactive: 0.919
O=C1c2cccc(O)c2C(=O)c2c(O)cccc21 [Danthron (1,8-Dihydroxyanthraquinone)] | inactive: 1.25
Nc1ccc(S(=O)(=O)O)cc1.Nc1ccc(S(=O)(=O)O)cc1.[Zn] [Sulfanilate Zinc (Sulfanilic acid)] | inactive: 0.983
[Al+3].[Al+3].[Al+3].[Al+3].[Al+3].[Al+3].[Bi+3].[Bi+3].[O-2].[O-2].[O-2].[O-2].[O-2].[O-2].[O-2].[O-2].[O-2].[O-2].[O-2].[O-2] [Bismuth aluminate] | inactive: 1.14
C#C[C@]1(O)CC[C@H]2[C@@H]3CCC4=Cc5oncc5C[C@]4(C)[C@H]3CC[C@@]21C [Danazol] | inactive: 0.899
O=c1cc[nH]c(=O)[nH]1 [Uracil] | inactive: 0.844
[Cl-].[Cl-].[Cl-].[In+3] [Indium(III) chloride] | inactive: 0.736
CN1CCCN=C1/C=C/c1cccs1 [Pyrantel] | inactive: 0.992
NNC(=O)c1ccncc1 [Isoniazid (Isonicotinic acid Hydrazide)] | inactive: 1.16
CN(C(=O)CCCOc1ccc2[nH]c(=O)ccc2c1)C1CCCCC1 [Cilostamide] | inactive: 1.06
CC1(C)O[C@@H]2C[C@H]3[C@@H]4C[C@H](F)C5=CC(=O)CC[C@]5(C)[C@H]4[C@@H](O)C[C@]3(C)[C@]2(C(=O)CO)O1 | active: 1.55
O=C(O)c1cccnc1 [Nicotinic Acid (niacin)] | inactive: 0.992
CCCCc1oc2ccccc2c1C(=O)c1cc(I)c(OCCN(CC)CC)c(I)c1 [Amiodarone] | inactive: 1.01
O=c1[nH]c(=O)n([C@H]2C[C@H](O)[C@@H](CO)O2)cc1I [Idoxuridine ((+)-5-Iodo-2'-deoxyuridine)] | inactive: 0.91
c1ccc2ccccc2c1 [Naphthalene] | inactive: 1.25
NCCc1ccc(O)c(O)c1 [3-hydroxytyramine (Dopamine)] | active: 1.43
NCCc1ccc(O)c(O)c1 [Dopamine (3-Hydroxytyramine hydrochloride)] | active: 1.51

Another view of part of the listing above.
Compound,cell-surface Lgr5 expression
CC(C)NNC(=O)c1ccncc1 [Iproniazid phosphate salt],inactive: 0.865
CC(C)NNC(=O)c1ccncc1 [Iproniazid (Isonicotinic acid hydrazide)],inactive: 0.919
CC1(C)O[C@@H]2C[C@H]3[C@@H]4C[C@H](F)C5=CC(=O)CC[C@]5(C)[C@H]4[C@@H](O)C[C@]3(C)[C@]2(C(=O)CO)O1,active: 1.55
CCCCc1oc2ccccc2c1C(=O)c1cc(I)c(OCCN(CC)CC)c(I)c1 [Amiodarone],inactive: 1.01

Following part:

Compound | cell-surface Lgr5 expression
O.O=C([O-])CN(CCN(CC(=O)[O-])CC(=O)[O-])CC(=O)[O-].[Ca+2].[Na+].[Na+] | inactive: 1
O.O=C([O-])CN(CCN(CC(=O)[O-])CC(=O)[O-])CC(=O)[O-].[Ca+2].[Na+].[Na+] [Edetate calcium disodium (Calcium disodium versenate)] | inactive: 0.981
O=C1O[C@H]([C@@H](O)CO)C(O)=C1[O-].O=C1O[C@H]([C@@H](O)CO)C(O)=C1[O-].[Ca+2] [Calcium L-ascorbate dihydrate] | inactive: 1.08
O.O.O.O.O.O.O.O=S(=O)([O-])[O-].[Fe+2] [Iron(II) sulfate heptahydrate] | inactive: 1.01
C[C@H](CS)C(=O)N1CCC[C@H]1C(=O)O [Captopril] | inactive: 1.23
CC1(C)O[C@@H]2C[C@H]3[C@@H]4C[C@H](F)C5=CC(=O)C=C[C@]5(C)[C@H]4[C@@H](O)C[C@]3(C)[C@]2(C(=O)CO)O1 [Flunisolide] | active: 1.47
CCCOC(=O)c1ccc(N)cc1 [Risocaine (N-Propyl-p-aminobenzoate)] | inactive: 1.06
C=CC[N+]1([C@H]2C[C@H]3[C@@H]4CC[C@H]5C[C@H](O)[C@@H](N6CCOCC6)C[C@]5(C)[C@H]4CC[C@]3(C)[C@H]2OC(C)=O)CCCC1 [Rocuronium bromide (Zemuron)] | inactive: 1.2
CC(C)(C)NC(=O)[C@H]1CC[C@H]2[C@@H]3CC[C@H]4NC(=O)C=C[C@]4(C)[C@H]3CC[C@]12C [Finasteride] | inactive: 1.17
C=CC1=C(C)/C(=C/c2[nH]c(Cc3[nH]c(/C=C4\NC(=O)C(C)=C4C=C)c(C)c3CCC(=O)O)c(CCC(=O)O)c2C)NC1=O [Bilirubin] | inactive: 0.974
Nc1nc(N)c2nc(-c3ccccc3)c(N)nc2n1 [Triamterene] | inactive: 1.22
C=C1CC[C@H](O)C/C1=C/C=C1\CCC[C@]2(C)[C@@H]([C@H](C)/C=C/[C@H](C)C(C)C)CC[C@@H]12 [Ergocalciferol] | inactive: 1.01
C=C1CC[C@H](O)C/C1=C/C=C1\CCC[C@]2(C)[C@@H]([C@H](C)/C=C/[C@H](C)C(C)C)CC[C@@H]12 [Vitamin D2] | inactive: 0.772
CC[C@H](C)C(=O)O[C@H]1C[C@H](O)C=C2C=C[C@H](C)[C@H](CC[C@@H]3C[C@@H](O)CC(=O)O3)[C@H]21 [Pravastatin lactone] | inactive: 1.09
Cn1nnc2c(C(N)=O)ncn2c1=O [Temozolomide] | inactive: 1.19
OC(CCN1CCCC1)(c1ccccc1)C1CCCCC1 (centres undefined) [Procyclidine] | inactive: 0.518
CCCC(O)C(CC)CO (centres undefined) [Ethohexadiol (2-Ethyl-1,3-hexanediol)] | inactive: 1.04
CC(C)C(=O)c1c(C(C)C)nn2ccccc12 [Ibudilast] | inactive: 1.29
C[N+](C)(C)C[C@H](O)CC(=O)[O-] (racemic) [DL-Carnitine hydrochloride (Levocarnitine)] | inactive: 1.15
CN(C)CCOC(c1ccccc1)c1ccc(Br)cc1 (centres undefined) [Bromodiphenhydramine hydrochloride] | inactive: 1
CCN(CC)CCOC(=O)c1ccc(N)cc1 [Procaine hydrochloride] | inactive: 0.937
CC[C@H](C)C(=O)O[C@H]1C[C@@H](C)C=C2C=C[C@H](C)[C@H](CC[C@@H]3C[C@@H](O)CC(=O)O3)[C@H]21 [Lovastatin (Mevinolin)] | inactive: 1.02

Compound | cell-surface Lgr5 expression
CC(C)=CCC[C@](C)(O)[C@@H]1CC=C(C)CC1 [Alpha bisabolol] | inactive: 1.11
[Na+].[O]=[Bi](=[O])[O-] [Sodium bismuthate] | inactive: 0.965
CC(=O)N[C@@H](CS)C(=O)O [Acetylcysteine (N-acetyl L-cysteine)] | inactive: 1.18
CC(=O)N[C@@H](CS)C(=O)O [n-Acetyl-l-cysteine] | inactive: 1.28
COc1cc(C2Oc3cc([C@H]4Oc5cc(O)cc(O)c5C(=O)[C@@H]4O)ccc3OC2CO)ccc1O (some centres undefined) [Silibinin] | inactive: 1.08
COc1cc(C2Oc3cc([C@H]4Oc5cc(O)cc(O)c5C(=O)[C@@H]4O)ccc3OC2CO)ccc1O (some centres undefined) [Silibinin (Silybin)] | inactive: 1.23
CN(C)CCn1nnnc1SCC1=C(C(=O)O)N2C(=O)[C@@H](NC(=O)Cc3csc(N)n3)[C@H]2SC1 [Cefotiam hydrochloride] | inactive: 1.01
CC(C)CCCC(C)N (centres undefined) [Octodrine (1,5 dimethyhexylamine)] | inactive: 1.14
CNC[C@H](O)[C@@H](O)[C@H](O)[C@H](O)CO [Meglumine (N-Methyl-D-glucamine)] | inactive: 1.21
N.N.O=C([O-])C[O-].[Pt+2] [Nedaplatin] | inactive: 0.837
CC1=CC(=C(c2ccc(N)cc2)c2ccc(N)cc2)C=CC1=N [Basic fuchsin hydrochloride] | inactive: 1.12
c1ccc2cc3ccccc3cc2c1 [Anthracene] | inactive: 1.3
COc1ccc(C[C@H](N)C(=O)N[C@H]2[C@@H](O)[C@H](n3cnc4c(N(C)C)ncnc43)O[C@@H]2CO)cc1 [Puromycin] | inactive: 0.253
NC(=O)OCC(COC(N)=O)c1ccccc1 [Felbamate] | inactive: 0.551
CCC[S+]([O-])c1ccc2[nH]c(NC(=O)OC)nc2c1 (centres undefined) [Ricobendazole (Albendazole oxide)] | inactive: 1.07
Cc1ccnc(NS(=O)(=O)c2ccc(N)cc2)n1 [Sulfamerazine] | inactive: 0.989
CC(C)n1c(/C=C/C(O)CC(O)CC(=O)O)c(-c2ccc(F)cc2)c2ccccc21 (centres undefined) [Fluvastatin sodium salt] | inactive: 0.891
N.N.O=S(=O)(O)O [Ammonium sulfate] | inactive: 0.987
Cc1cc(O)c(C(C)C)cc1Cl [Chlorothymol (4-Chloro-2-isopropyl-5-methylphenol)] | inactive: 1.16
CCCCC(CC)COS(=O)(=O)O (centres undefined) [Sodium ethasulfate (Sodium-2-ethylhexyl sulfate)] | inactive: 0.836
